Assay results: patent US6379658B1, “Human sweat malodor counteractant composition and process for using same” (International Flavors & Fragrances Inc., priority 1999, dated 2002)

Experiment: Cloth substantivity (Launder-O-Meter washed fabric, odor intensity rated by trained panel)
Settings: single fragrance ingredient

Structure (SMILES)	Substantivity (Time [Hours]) [h]
CC(=O)CCc1ccccc1 [Benzyl acetone, benzyl acetone]	24
CC(=O)c1ccc2ccccc2c1 [Methyl β-naphthalene ketone, methyl β-naphthyl ketone]	24
COc1ccc2ccccc2c1 [β-Naphthyl methyl ether, β-naphthyl methyl ether]	24
CC(=O)C(C)=CC1C(C)=CCCC1(C)C (stereo not shown) [γ-Methyl ionone, 4-(2,6,6-trimethyl-2-cyclohexen-1-yl)-3-methyl-3-buten-2-one]	24
